## Screening data, single-dose tests

Measurements from “University of Dundee, Small-Polar-MMV Screening Library” (2021), ChEMBL document CHEMBL3988442.

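Cell assay of Leishmania donovani living inside macrophages; the read-out is not stated. Concentration: 30 µM. Direction is inferred from retests: higher values go with stronger inhibition. Of about 69,000 compounds tested this way, about 1,000 (1.5%) reached 50% or more in at least one test.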

Results are given as percent effect. The record does not define 0% and 100%; most values in the screen are far below 50% and negative numbers occur (in some assays of this library far below -100). This is an unselected part of the compounds tested. Two or more numbers in one place are separate tests of the same structure; such repeats can differ widely.

structure | Percent Effect
Cc1cc(CNC2(c3ccccc3)CCCCC2)no1 | 4.963
Cc1nc(CN2CCCC(NCCOc3cccc(C#N)c3)C2)no1 (stereo not given) | 31.05
CC(C)CC(C(=O)N(C)Cc1ncnn1C)N1CCCCC1=O (stereo not given) | -10.53
O=C(NC1CCC(C(=O)N2CCSCC2)CC1)N1CCC1 (stereo not given) | 7.98
O=C(NCCNc1cccnc1)C(c1cccnc1)N1CCCC1 (stereo not given) | 16.65
CNC(=O)[C@@H]1C[C@H](N)CN1S(=O)(=O)c1cc(C)c(Cl)cc1C | 19.25
CCS(=O)(=O)N1CCC(Oc2ccc(C#N)cc2)CC1 | -56.83
Cn1cccc1C(=O)N1CCC2(CC1)CN(c1ccccn1)CCO2.O=C(O)C(F)(F)F | 29.67
Cc1ccc(CNC(=O)Cn2nc(-c3ccc(F)cc3)oc2=O)cc1F | 6.176
CC(C)c1nnc2n1CCN(C(C)c1nnc(-c3cccs3)o1)C2 (stereo not given) | 31.57
Cc1cc(C)n(CCN2CCN(C(=O)c3ccccc3Br)CC2)n1 | 12.18 and 0.7213
Cc1nc2ccccc2nc1CN1CCn2nc(CCC(=O)O)cc2C1 | -32.07
CSCc1noc(-c2nc3c([nH]2)CCCNC3=O)n1 | 15.23
COC(=O)N1CCN(CCCc2nnnn2-c2ccccc2)CC1 | -10.37
CCNC(=O)CCS(=O)(=O)Cc1ccn(-c2cccc(F)c2)n1 | 28.61
CC(c1nnc(-c2ccccc2)o1)N1CCC(Nc2ccccc2)CC1 (stereo not given) | -5.838
O[C@H]1CCN(CC2CCOC2)[C@H]1Cc1ccncc1 (stereo not given in full) | 14.57
O=C(NCC(F)(F)C(F)F)c1ccncc1 | -13.6
Cc1cn2nc(N3CCCC3Cn3cncn3)sc2n1 (stereo not given) | -2.133
Cn1ccnc1COc1ccc(NC(=O)C2CCCO2)cc1 (stereo not given) | 2.748
CNC(=O)NC(=O)CCSc1ccccc1C | 26.88
Clc1cc(CN2CCCC2Cn2cncn2)c2ncccc2c1 (stereo not given) | 23.1
CC(C)N(C)S(=O)(=O)N(C)Cc1ccc2c(c1)OCO2 | -30.64
[H][C@@]12COC[C@]1(COCc1cccc(C)n1)CN(c1ncccn1)C2 | 6.024
O=C1CCSCC(C(=O)N2CCCCC2)N1 (stereo not given) | 5.697 and 6.838
c1ccc(-c2ncc(CNC3CCc4ncnn4C3)cn2)cc1 (stereo not given) | 11.24
c1cc(N2CCC3(COCc4cnc(NCC5CC5)nc43)C2)ncn1 (stereo not given) | -9.25
CNc1ncccc1CN1CCCCC1c1cc(C)n2ccnc2n1 (stereo not given) | 16.81 and 13.17
COc1ccc(CNCCc2cc(F)cc3c2OCOC3)cc1OC | 10.01
Cc1csc(NC(=O)CN2CCCC(Cn3nc(C)nc3C)C2)n1 (stereo not given) | 20.76
O=C(c1cc(Cl)c[nH]1)N(CCCO)Cc1cccnc1 | -9.746
O=C(c1ccco1)N1CCC2(CC1)C(=O)Nc1ccccc12 | 36.43
CC(C)C(CNC(=O)CCn1cncn1)N1CCc2ccccc2C1 (stereo not given) | 21.2
[H][C@]12CN(Cc3cccc(OC(F)(F)F)c3)CCN1C(=O)N(C)C2 | -1.989
OCCN1CCC(CNCc2cn(-c3ccccc3)nn2)CC1 | -6.29
CS(=O)(=O)c1ccc(NC(=O)CSc2ccc3c(c2)CCC3)cc1 | -3.926
CC(C)Oc1cccc(C(O)CNC(=O)NCc2cccs2)c1 (stereo not given) | 29.12
COC(=O)CN1CC(c2nc(Cc3ccccc3)no2)C1.O=C(O)C(=O)O | 4.152
O=C(O)C(F)(F)F.O=C(c1cc[nH]n1)N1CCC2(CC1)CC(Oc1cccnc1)CO2 (stereo not given) | 44.41
O=C(O)C(F)(F)F.O=C(O)C(F)(F)F.[H][C@@]12CCN(CC3CCOCC3)C[C@]1(COc1ncccc1F)CCO2 | 21.55
Cc1cccc(C(C(=O)NCC2(Cn3nc(C)cc3C)CC2)N(C)C)c1 (stereo not given) | 9.827
O=C(N[C@@H]1CCN(c2ncc(Cl)cc2Cl)C[C@H]1O)c1cnccn1 | -0.417
CC(C)Cc1nnc(SCC(=O)O)n1-c1ccc(F)cc1F | -39.48
O=C(O)C(F)(F)F.O=C(O)C(F)(F)F.[H][C@@]12CN(Cc3ccsc3)C[C@@]1([H])N(Cc1ccncc1)C(=O)CO2 | 12.08
CC(C)CCC(=O)NCCc1ccn(-c2ccccc2)n1 | 30.5
O=C(NCc1ccc(Cl)s1)c1ccc(N2CCOC2=O)cc1 | 11.52
Cc1nc(N(C)C2CCCCC2)ncc1C(C)NC(=O)c1cccnc1 (stereo not given) | 21.36
CCCN1CCC(N2CCN(c3cc(C)nc(COC)n3)CC2)CC1 | -10.79
O=C1NCC[C@]12CN(Cc1ccsc1)C[C@H]2c1ccccc1 | 39.16
Cc1ncsc1CCN(C)C(=O)CN1CCOc2ccccc2C1 | -4.337
Nc1ncc(-c2ccc(Cl)cc2)c(C2CCCNC2)n1 (stereo not given) | -18.45
CC(C)OCc1nn(C)c2c1CCN(Cc1ccco1)C2.O=C(O)C(F)(F)F | 23.28
Cn1ncc2c(N3CCC(CCO)CC3)nc(C(C)(C)C)nc21 | 1.416
CC(C(=O)N1CCCN(c2ccc(C#N)cc2)CC1)n1ccnc1 (stereo not given) | 7.906
CN(C)CC(=O)N1CCc2cccc(S(=O)(=O)N3CCOCC3)c2C1 | 1.498
CCOCCNCC1CCN(CCO)CC1 | 24.46
CCS(=O)(=O)Nc1ccn(Cc2ccc(F)cc2Cl)n1 | -25.59
CC(Nc1cccc(Oc2ccc(C#N)cn2)c1)C(=O)NC1CC1 (stereo not given) | -34.2
Cn1c(Cn2ccnc2)nnc1C1CCN(C(=O)c2ccncc2)CC1 | -11.02
Cc1cc(-c2ccc(C(C)N3CCOCC3)cc2)cnc1N (stereo not given) | 10.9
CC(C)Cc1ncc2c(n1)CN(c1nc3ccccc3cc1CO)C2 | 14.11
CCN(CC)CCNC(=O)c1ccc(Cl)c(NS(C)(=O)=O)c1 | 2.097
CCc1noc(CS(=O)(=O)Cc2nc(Cc3ccccc3)no2)n1 | 35.36
COc1ccc(C(=O)N2CC[C@](C)(O)[C@H](C)C2)cc1N1CCOCC1 | 5.423
CCOC1CC2(CCN(C(=O)COC)CC2)c2cc(F)ccc21 (stereo not given) | -23.79
COC(=O)N1CC(C)=C(C)CN1C(=O)Nc1ccc(Cl)c(Cl)c1 | -2.821
CCCC1(C(=O)O)CCCN(C(=O)c2cc(Cl)ccc2F)C1 (stereo not given) | 15.56
Cn1c(Cn2ncc(N3CCCCC3)cc2=O)nc2ccccc21 | 7.241
CCn1c(C)cc(C(=O)N2CCC(NC(=O)c3ccc(C)o3)CC2)c1C | -17.61
Cc1nc(C2(NCC(=O)NC(=O)Nc3ccccc3)CCCCC2)no1 | 4.612
O=C1CCN(C(=O)NCc2cccc(Oc3ccccc3)c2)CCN1 | 18.44
[H][C@]12CCN(S(=O)(=O)Cc3ccccc3)[C@@]1([H])CC[C@@H](COCC)O2 | -1.974

For reference, 7 entries once more:

With Cc1cn2nc(N3CCCC3Cn3cncn3)sc2n1 (stereo not given) the screen gave -2.133%.
With O=C(NCCNc1cccnc1)C(c1cccnc1)N1CCCC1 (stereo not given) the screen gave 16.65%.
With Cn1c(Cn2ccnc2)nnc1C1CCN(C(=O)c2ccncc2)CC1 the screen gave -11.02%.
With CCN(CC)CCNC(=O)c1ccc(Cl)c(NS(C)(=O)=O)c1 the screen gave 2.097%.
With CCCN1CCC(N2CCN(c3cc(C)nc(COC)n3)CC2)CC1 the screen gave -10.79%.
With CCOCCNCC1CCN(CCO)CC1 the screen gave 24.46%.
With [H][C@@]12COC[C@]1(COCc1cccc(C)n1)CN(c1ncccn1)C2 the screen gave 6.024%.